Data on two molecules can be found in patent US20090325290A1.

For this experiment, the target named is human-mouse chimeric molecule DR-IE (human; mouse). The experiment can be described thus: ELISA (FIG. 1b). For orientation: ELISA stands for enzyme-linked immunosorbent assay.

These are yes or no findings as the source states them, for the method shown. Binding can be weak; no strength is given.

B1: MS-GPC-1 (Fab form) (Fab, V domains shown)
VH: QVQLKESGPALVKPTQTLTLTCTFSGFSLSTSGVGVGWIRQPPGKALEWLALIDWDDDKYYSTSLKTRLTISKDTSKNQVVLTMTNMDPVDTATYYCARQYGHRGGFDHWGQGTLVTVSS
VL: DIVLTQPPSVSGAPGQRVTISCSGSSSNIGSNYVSWYQQLPGTAPKLLIYDNNQRPSGVPDRFSGSKSGTSASLAITGLQSEDEADYYCQSYDFNESVFGGGTKLTVLG
Consider B1, for which the binding result was “binds”.

B2: MS-GPC-10 (Fab form) (Fab, V domains shown)
VH: QVQLKESGPALVKPTQTLTLTCTFSGFSLSTSGVGVGWIRQPPGKALEWLALIDWDDDKYYSTSLKTRLTISKDTSKNQVVLTMTNMDPVDTATYYCARQLHYRGGFDLWGQGTLVTVSS
VL: DIVLTQPPSVSGAPGQRVTISCSGSSSNIGSNYVSWYQQLPGTAPKLLIYDNNQRPSGVPDRFSGSKSGTSASLAITGLQSEDEADYYCQSYDLTMGVFGGGTKLTVLG
Turning to B2, the binding result is reported as “binds”.
